Source: PubChem BioAssay AID1439 (NMMLSC, 2008)
The campaign covered roughly 220,000 compounds. About 770 (0.35%) were called active. The inconclusive results got no clear call from the source; some entries with a clear call stand among them for comparison. Rule as the data show it: active = binding response below about 49% or above about 150%; inconclusive = no clear call, values can overlap the other calls; inactive = in between.

The chains behind the UniProt entries cited, without tags or fusion partners.
UniProt P09471, whole entry, looked up: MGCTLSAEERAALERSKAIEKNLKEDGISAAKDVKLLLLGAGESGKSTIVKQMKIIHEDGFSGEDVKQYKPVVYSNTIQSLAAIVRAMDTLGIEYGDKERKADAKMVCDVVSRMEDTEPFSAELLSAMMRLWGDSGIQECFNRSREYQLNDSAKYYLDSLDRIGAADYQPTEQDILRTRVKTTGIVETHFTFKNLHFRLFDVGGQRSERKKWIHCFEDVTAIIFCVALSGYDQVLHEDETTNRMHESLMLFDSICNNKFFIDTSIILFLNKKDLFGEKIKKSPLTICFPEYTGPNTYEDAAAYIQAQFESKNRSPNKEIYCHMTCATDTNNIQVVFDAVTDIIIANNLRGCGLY

biological target: Guanine nucleotide-binding protein G(o) subunit alpha (Homo sapiens) (UniProt P09471); assay: RGS7-Galphao binding modulators, primary screen, biochemical, multiplexed bead flow cytometry (AID 1439); details: at 10 µM, actives lie on both sides;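 also: fluorescent Galphao held in activated GDP-AlF4 state binding bead-coupled RGS7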

Row | SMILES | binding response (% of control)
1 | N#Cc1c(-c2ccccc2Cl)c2c([nH]c1=O)-c1ccccc1OC2 | inconclusive: 20.4%
2 | Cn1ncc(Br)c1NC(=O)Nc1ccc(OC(F)(F)F)cc1 | inconclusive: 64%
3 | CCOc1ccccc1NC(=O)Nc1cc(S(=O)(=O)N(C)C)ccc1C | inconclusive: 124%
4 | Cc1ccc(S(=O)(=O)N(C)C)cc1NC(=O)CSc1nnnn1-c1ccc(O)cc1 | inconclusive: 85.2%
5 | Cc1ccc(CNc2ncnc(N)c2[N+](=O)[O-])cc1 | inactive: 93.1%
6 | CC1(OC(=O)CCc2ccccc2)C(=O)C=C2C=C(c3ccc(C#N)cc3)N(C3CCCCC3)C=C2C1=O (configuration not stated) | inconclusive: 11.9%
7 | Cc1nc2cc(Nc3ccncc3)ccc2s1 | inactive: 103%
8 | Cc1ccc(-c2cnco2)cc1 | inconclusive: 81.1%
9 | C/C(CC(=O)Nc1ccccn1)=N\NC(=O)c1cnccn1 | inconclusive: 83.5%
10 | COc1ccc(/C=N/n2cnc3c([nH]c4ccc(F)cc43)c2=O)cc1CSc1ccccn1 | inconclusive: 70.7%
11 | COCCCN1C(=O)/C(=C\c2cccs2)C(C(=O)OC)=C1C | inactive: 95.4%
12 | O=C(O)Cc1c(C(=O)O)[nH]c2ccc(C(=O)O)cc12 | inconclusive: 129%
13 | COC(=O)c1ccc(N=Nc2ccccc2)cc1 | inconclusive: 127%
14 | CN1Cc2c(N3CCOCC3)nc3sc(C(=O)c4ccc(Br)cc4)c(N)c3c2CC1(C)C | inconclusive: -64.3%
15 | Brc1csc2ncccc12 | inconclusive: 137%
16 | Cc1occc1C(=O)NNC(=O)c1ccc(Br)o1 | inconclusive: 115%
17 | O=C(Nc1ccc(Cl)cc1)Nc1csc([N+](=O)[O-])c1 | inconclusive: 92.5%
18 | CCc1nnc(NC(=O)c2cccnc2SC)s1 | inactive: 101%
19 | COc1cc(/C=N/Nc2nc3ccccc3[nH]c2=O)ccc1O | inconclusive: 111%

Row | SMILES | binding response (% of control)
20 | CC(C)CCNC(=O)C(c1ccncc1)N(C(=O)Cn1nnc(-c2ccc(F)cc2)n1)c1ccccc1F (configuration not stated) | inconclusive: 111%
21 | COc1ccc(/C=N/n2c(-c3cc(C)[nH]n3)n[nH]c2=S)cc1OC | inconclusive: 112%
22 | Cc1c(NS(=O)(=O)c2ccc(NCCN3CCOCC3)c([N+](=O)[O-])c2)c(=O)n(-c2ccccc2)n1C | inconclusive: 96.2%
23 | COc1ccc(-c2cnnc(N/N=C/c3c(C)nn(-c4ccccc4)c3Cl)n2)cc1 | inactive: 101%
24 | COc1ccc(NC(=S)NCCc2ccccc2)c(OC)c1 | inactive: 100%
25 | COc1ccc2c(=O)c3c(=O)n(-c4ccc(C)cc4)c(-c4ccccc4)nc3oc2c1 | inconclusive: 157%
26 | Cc1nc2c(c(C)nn2-c2ccccc2)c(C)c1CCC(=O)Nc1ccc(CN2CCCC2)cc1 | inconclusive: 105%
27 | C/C(=N\Nc1ccc(Cl)c(C(=O)O)c1)c1ccccn1 | inconclusive: 118%
28 | CN(C(=O)Nc1ccc(Cl)cc1)n1cnc2ccccc2c1=O | inconclusive: 114%
29 | Cc1ccc(S(=O)(=O)Nc2csc(C)c2C(=O)O)cc1 | inconclusive: 90.6%
30 | c1ccc(-c2nc3ccccc3s2)nc1 | inconclusive: 81.5%
31 | COCCN1C2=C(COC(C)(C)C2)C(=S)NC1c1ccccc1 (configuration not stated) | inconclusive: 143%
32 | N/C(=N\OC(=O)c1ccc(Cl)cc1)c1ccc(Cl)cc1 | inactive: 103%
33 | Cc1cc(C(=O)Nc2ncn(Cc3ccc(F)cc3)n2)ccc1[N+](=O)[O-] | inconclusive: 93.9%
34 | COc1ccccc1C1CCN(c2ccc([N+](=O)[O-])cn2)CC1 | inconclusive: 29.4%
35 | CC(C)S(=O)(=O)c1csc(NC(=O)Nc2cccc([N+](=O)[O-])c2)c1Cl | inconclusive: 117%
36 | CCc1ncc(/C=C2\C(=O)Nc3ccccc32)[nH]1 | inconclusive: 72.9%
37 | CS(=O)(=O)c1ccc2nc(NC(=O)c3ccc(N4CCCC4=O)cc3)sc2c1 | inconclusive: 104%
38 | CC(C)Nc1cc(C(C)(C)C)nc2c(-c3ccccc3)cnn12 | inconclusive: 107%

Row | SMILES | binding response (% of control)
39 | CCOc1ccc(N2C(=O)Nc3ccccc3C2(O)C(=O)N2CCN(c3ccccn3)CC2)cc1 (configuration not stated) | inconclusive: 86.2%
40 | COC(=O)c1ccccc1NS(=O)(=O)c1ccc(NC(C)=O)cc1 | active: 151% [activator]
41 | CCn1c(C)cc(/C=C2/SC(=S)N(CC(=O)O)C2=O)c1C | inconclusive: 103%
42 | O=C(NC(=S)Nc1cccc2ncccc12)c1ccccc1 | inconclusive: 105%
43 | COC(=O)Cc1ccc(NC(=S)N2CCN(C)CC2)cc1 | inconclusive: 107%
44 | NC(=O)CC(NC(=O)c1ccccc1)c1ccc(NCCOc2ccccc2)c([N+](=O)[O-])c1 (configuration not stated) | inconclusive: 106%
45 | COC(=O)c1cccc(C23CC4(C2)[C@H](CN(Cc2ccc(-c5ccccc5)cc2)[C@@H]4c2ccccc2)C3c2ccc(Cl)nc2)c1 (some centres not stated) | inconclusive: 125%
46 | CCOC(=O)C1CCN(C(=O)c2cccnc2Oc2ccc(Cl)cc2)CC1 | inconclusive: 105%
47 | O=C(NNc1cc(Cl)ccc1Cl)c1c(F)cccc1Cl | inconclusive: 96.7%
48 | CC(C1CC1)N(C(=O)c1ccccc1[N+](=O)[O-])c1ccccc1 (configuration not stated) | inconclusive: 84.1%
49 | CCOc1cc(C(=O)NCCc2ccc(S(N)(=O)=O)cc2)cc(OCC)c1OCC | inconclusive: 23.5%
50 | CN1CCN(c2cc(C(F)(F)F)nc(-c3ccccn3)n2)CC1 | inconclusive: 92%
51 | C=CCn1c(O)c(N=NC(=O)c2cccnc2)c2cc(Br)ccc21 | inconclusive: 106%
52 | COC(=O)CCC(=O)OC1(C)C(=O)C=C2C=C(C3CC3)N(CC3CC3)C=C2C1=O (configuration not stated) | inconclusive: 93.1%
53 | O=C(CSc1nnc(-c2ccco2)o1)N1CCN(c2ccccc2)CC1 | inconclusive: 82%
54 | COCCN(C(=S)Nc1cccc(C)c1C)C(C)c1ccco1 (configuration not stated) | inconclusive: 97.7%
55 | Cc1cc(-c2n[nH]c(=S)n2/N=C/c2ccco2)n[nH]1 | inconclusive: 92.4%
56 | COc1ccc(C(=O)N2CCOC2CNC(=O)C(=O)NCc2ccco2)cc1 (configuration not stated) | inactive: 104%
57 | S=c1[nH]nc(-c2ccccc2Cl)n1/N=C/C=C/c1ccco1 | inconclusive: 134%

Of the compounds above, these contain a COOH group.
Row | SMILES | binding response (% of control)
12 | O=C(O)Cc1c(C(=O)O)[nH]c2ccc(C(=O)O)cc12 | inconclusive: 129%
27 | C/C(=N\Nc1ccc(Cl)c(C(=O)O)c1)c1ccccn1 | inconclusive: 118%
29 | Cc1ccc(S(=O)(=O)Nc2csc(C)c2C(=O)O)cc1 | inconclusive: 90.6%
41 | CCn1c(C)cc(/C=C2/SC(=S)N(CC(=O)O)C2=O)c1C | inconclusive: 103%
